Among the data in PubChem BioAssay AID445 (National Center for Advancing Translational Sciences (NCATS), 2006) are AC50 values, retold here.

The test in a line: IkB Signaling. Conditions: ABC-DLBCL IkBa-CBG/CBR dual luciferase ratio (green luciferase fused to IkBa over red control in OCI-Ly3 lymphoma cells), 4 h. In a few lines:
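Luminescence ratio of IκBα-fused green versus native red beetle luciferase in OCI-Ly3 cells, 4 h post-doxycycline with compound; red signal alone, scaled from basal (0%) to zero light (-100%), flagged nonspecific or cytotoxic effects.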

[1] abbreviates: measured here: control luc red channel unless noted.

Some of the results follow. Further columns of the screen follow, without active or inactive calls. The list favours compounds with an active or inconclusive main result. Words in brackets tell the shape of the fitted curve; partial curves, single points and poor fits give uncertain potencies.

Take `CCOc1ccc2nc(Cl)c(C3CC(c4ccc(C)cc4)=NN3C(=O)CCC(=O)O)cc2c1` (stereo not drawn): the concentration at half-maximal activity (AC50) – broadly, the midpoint of the concentration-response curve, whichever way the signal moves – under setting [1] was 3.98 µM [falling, full curve].
Same read-out and setting: the value for `Cc1c(Cl)cccc1NC(=O)CCS(=O)(=O)c1ccc2c(c1)CC(C)N2C(=O)C1CC1` (stereo not drawn) was 10 µM [falling, partial curve].
For the compound `CCC(C)S(=O)(=O)c1oc(-c2cccs2)nc1S(=O)(=O)c1ccccc1` (stereo not drawn), the AC50 under setting [1] was 5.01 µM [falling, partial curve].
For the compound `COc1cccc(-c2nnc(SCC(=O)N(C)C3CCCCC3)o2)c1`, the concentration at half-maximal activity (AC50) under setting [1] was 20 µM [falling, partial curve, poor fit].
The same measure, in the same setting: the value for `CCOc1ccccc1CNCc1c(C(=O)O)c(C)n(Cc2ccc(C)cc2)c1C` was 25.1 µM [falling, single point]; that for `CN1CCc2nc3sc(C(=O)c4ccc(F)cc4)c(N)c3cc2C1` was 15.8 µM [falling, partial curve]; that for `CN1C(=O)c2cccc3c(S(=O)(=O)Nc4cccc(C(=O)O)c4)ccc1c23` was 1.58 µM [falling, full curve, poor fit].
For `CCc1ccc(NC(=O)c2cc(S(=O)(=O)NC3CCCCCC3)ccc2F)cc1`, under setting [1], the AC50 was 20 µM [falling, partial curve].
Same read-out and setting: the value for `Cc1nn(-c2ccccc2)c2c1N(CCCC(=O)NC(C)c1ccccc1)C(=O)CS2` (stereo not drawn) was 6.31 µM [falling, partial curve]; that for `N#Cc1c(-n2cccc2/C=N/O)sc2c1CCCC2` was 12.6 µM [falling, partial curve].
Still for that read-out and setting: then `CCc1ccc(CNC(=O)CCn2nc(C)c3c(C)n(-c4ccccc4)nc3c2=O)cc1`, with 15.8 µM [falling, single point]; and `Cc1cccc(N2CCN(C(=O)c3ccc(Cl)c(S(=O)(=O)NCc4ccco4)c3)CC2)c1C`, with 25.1 µM [falling, partial curve]; and `Cc1ccc(-c2nn(CC(C)(C)C)c3ncnc(N)c23)cc1`, with 2.51 µM [falling, full curve].
`O=C(Nc1ccccc1)c1cccc(N2CCCS2(=O)=O)c1`: under setting [1], the AC50 is 200 nM [rising, full curve, poor fit] [measured here: IkB-luc green channel].
Consider `COc1cc(C(=O)OCC(=O)c2c[nH]c3ccccc23)ccc1OCC(=O)N1CCOCC1`, for which, under setting [1], the half-maximal activity concentration (AC50) was 10 µM [falling, partial curve].
Take `S=C(Nc1ccccn1)c1ccccn1`: the AC50 (measured here: IkB-luc green channel) was 31.6 µM [rising, partial curve] and the concentration at half-maximal activity (AC50) (measured here: control luc red channel) was 20 µM [falling, partial curve].
Regarding `Oc1ccc(N2CCN(c3ncnc4sc5c(c34)CCC5)CC2)cc1`, the AC50 under setting [1] was 12.6 µM [falling, partial curve].
